For the data set, the system named is colorectal tumour samples. Nature of the data set: Re-detection of identified TUMAPs by ESI-LCMS in CRC tumour samples. Conditions: colon and rectum cancer samples and metastases. Further details: species or system human.

The source of these data is patent publication US9950048B2, “Immunogenic epitopes for immunotherapy” (immatics biotechnologies GmbH, priority 2007, dated 2018).

Ends that are not written are not given here.

Regarding ALSNLEVTL [Peptide C20-001], the “Detected in % of analyzed samples” value is on record as 100%.

Regarding KIFDEILVNA [TOP-001], the “Detected in % of analyzed samples” value turned out to be 87%.

For the sequence KLMDLDVEQL [PCN-001], the “Detected in % of analyzed samples” value is 80%.

For ALFVRLLALA [TGFBI-001], the “Detected in % of analyzed samples” value was 100%.

As for ILAPVILYI [NOX-001], the “Detected in % of analyzed samples” value came out at 67%.

Regarding “TPPIDAHTRNLLRNH (listed as Homo sapiens) [TGFBI-004]”, the “Detected in % of analyzed samples” value was 33%.
